This note sets out measurements from publication PMC8765783, “Identification of the potential active site of the septal peptidoglycan polymerase FtsW” (PLoS Genetics, 2022).

The test addresses T1, His-FtsW W138A (E. coli) (UniProt P0ABG4).
T1 sequence: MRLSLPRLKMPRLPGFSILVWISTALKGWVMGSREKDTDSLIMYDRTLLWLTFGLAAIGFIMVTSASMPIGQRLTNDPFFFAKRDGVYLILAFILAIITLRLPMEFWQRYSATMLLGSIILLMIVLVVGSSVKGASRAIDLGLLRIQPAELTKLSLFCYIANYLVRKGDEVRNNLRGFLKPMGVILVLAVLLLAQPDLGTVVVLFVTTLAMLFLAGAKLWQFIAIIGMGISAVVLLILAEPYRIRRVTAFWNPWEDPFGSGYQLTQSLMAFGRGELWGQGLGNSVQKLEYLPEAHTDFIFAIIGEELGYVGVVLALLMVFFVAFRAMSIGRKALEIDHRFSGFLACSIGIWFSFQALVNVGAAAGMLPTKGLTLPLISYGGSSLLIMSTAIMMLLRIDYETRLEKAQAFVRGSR
The test is described as follows: pull-down; His-tagged protein co-expressed with the untagged partner in E. coli; membranes solubilised in DDM; His-tagged protein held on a HisTrap column (50 mM Tris-HCl pH 7.5, 300 mM NaCl, 10% glycerol, 1 mM DDM, 50 mM imidazole), eluted with an imidazole gradient; SDS-PAGE with Coomassie, Bocillin FL fluorescence or anti-HA blot.

Results are given in words; binding and its absence hold for the method and conditions named. In cells and extracts the contact can be indirect. Some entries that bind do so weakly or less than the wild type. Sequences can lack the tags named with a protein.

B1: FtsI(PBP3), untagged (E. coli) (enzyme, UniProt P0AD68 1-577)
chain: MKAAAKTQKPKRQEEHANFISWRFALLCGCILLALAFLLGRVAWLQVISPDMLVKEGDMRSLRVQQVSTSRGMITDRSGRPLAVSVPVKAIWADPKEVHDAGGISVGDRWKALANALNIPLDQLSARINANPKGRFIYLARQVNPDMADYIKKLKLPGIHLREESRRYYPSGEVTAHLIGFTNVDSQGIEGVEKSFDKWLTGQPGERIVRKDRYGRVIEDISSTDSQAAHNLALSIDERLQALVYRELNNAVAFNKAESGSAVLVDVNTGEVLAMANSPSYNPNNLSGTPKEAMRNRTITDVFEPGSTVKPMVVMTALQRGVVRENSVLNTIPYRINGHEIKDVARYSELTLTGVLQKSSNVGVSKLALAMPSSALVDTYSRFGLGKATNLGLVGERSGLYPQKQRWSDIERATFSFGYGLMVTPLQLARVYATIGSYGIYRPLSITKVDPPVPGERVFPESIVRTVVHMMESVALPGGGGVKAAIKGYRIAIKTGTAKKVGPDGRYINKYIAYTAGVAPASQPRFALVVVINDPQAGKYYGGAVSAPVFGAIMGGVLRTMNIEPDALTTGDKNEFV
On to B1, for which the binding entry is “binds”.
